According to patent US12180388B2, “Method of treatment of a surface” (Conopco, Inc., priority 2018, dated 2024):
Some of these results come from one statement about several compounds together.

Legend:
[1] = test system: Aspergillus brasiliensis; test: Single-species biofilm (microfouling) growth inhibition, crystal violet biomass; assay type: cell-based; settings: 24 hours
Description: (§1) Fresh stock solution of lactam was prepared at 20 mM in DMSO. Lactam stock was then serially diluted in tissue culture plates in 100% ethanol first ten-fold and subsequently to the desired concentrations. Plates were then left to dry overnight in a fume hood.
(§2) Single species plates were inoculated with each 1×10^6 bacteria/Aspergillus in marine broth and left for 24 hours. Multispecies plates were inoculated with 1×10^5 S. algae, V. anguillarium V. alginolyticus and 1×10^6 C. marina, A. brasiliensis, P. atlantica, C. lytica in marine broth and left for 24 hours, 48 and 72 hours. Plates were washed twice and left overnight to dry. Crystal violet (0.05% w/v) was added for 20 minutes and destained using 100% ethanol. Biomass was measured by optical density (OD) at 570 nm.
(§3) In this experiment, the plates were treated with lactam at levels of 0.0312 mM to 2 mM as well as an untreated control. The specific levels of lactam measured were of 0.0312 mM, of 0.0625 mM, of 0.125 mM, of 0.25 mM, of 0.5 mM, 1 mM, and 2 mM. This would equate to levels of from ˜6 ppm ([…]) to 400 ppm (2 mM), and to wt. % of 0.0006 wt. % ([…]) to 0.04 wt. % (2 mM). The lactam was provided in a DMSO/ethanol solvent to the plates. The plate was then inoculated with the marine organism or mixture thereof. The rate of growth of the culture was measured after 24 hours days by optical density.

[2] = test system: Vibrio anguillarium; test: as above; assay type: cell-based; settings: 24 hours
Description: as §1, §2, §3

C=C1NC(=O)C=C1c1ccc(Cl)cc1 [lactam 488, 4-(4-chlorophenyl)-5-methylene-pyrrol-2-one]
lactam concentration with biofilm growth inhibition effect [1]: > 0.0312 mM | lactam concentration with biofilm growth inhibition effect [2]: > 0.5 mM

C=C1NC(=O)C=C1c1ccc(C)cc1 [lactam 491, 5-methylene-4-(p-tolyl)pyrrol-2-one]
lactam concentration with biofilm growth inhibition effect [1]: > 0.0312 mM | lactam concentration with biofilm growth inhibition effect [2]: > 0.5 mM
